No constants are given. Whether binding was seen depends on the method and setting. Some binding calls cover weakened binding; strength is not graded here.
Each binder was assayed against PTH1R in cell membranes, G protein-uncoupled conformation (R0) (UniProt Q03431) (assay: competition binding on cell membranes, R0 state of PTH1R (GTPγS in the reaction); SB (%) against ligand concentration; tracer not named in the filing [R0 right panel]).

The chains behind the UniProt entries cited, without tags or fusion partners. Residues count along the entry.
UniProt Q03431, residues 27-593: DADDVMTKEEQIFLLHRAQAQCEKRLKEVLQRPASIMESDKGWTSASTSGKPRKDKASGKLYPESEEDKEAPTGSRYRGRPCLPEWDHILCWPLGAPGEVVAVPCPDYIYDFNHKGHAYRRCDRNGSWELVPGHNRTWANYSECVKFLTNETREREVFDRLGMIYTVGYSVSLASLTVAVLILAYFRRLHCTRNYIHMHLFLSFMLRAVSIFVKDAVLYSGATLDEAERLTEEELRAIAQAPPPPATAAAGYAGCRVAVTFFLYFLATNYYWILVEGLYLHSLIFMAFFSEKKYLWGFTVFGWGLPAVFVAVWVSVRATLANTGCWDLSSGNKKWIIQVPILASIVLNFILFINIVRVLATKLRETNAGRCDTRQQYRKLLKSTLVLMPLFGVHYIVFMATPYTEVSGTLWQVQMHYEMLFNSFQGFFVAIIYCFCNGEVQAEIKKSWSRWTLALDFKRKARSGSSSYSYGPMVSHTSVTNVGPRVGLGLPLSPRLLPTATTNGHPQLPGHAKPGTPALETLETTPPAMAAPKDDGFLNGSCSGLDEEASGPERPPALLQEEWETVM

Row | Binder | binding
1 | AVSEHQLLHDKGKSIQDLRRRFWLHHKLAEVHTA (C-terminal amide) [PTHrP(1-34)NH2 [F23′W/L27′K/I28′L/I31′V]] | binds
2 | SVSEIQLMHNLGKHLNSMERVEWLRKKIQDIHNF (C-terminal amide) [PTH(1-34)NH2 [L28I/V31I]] | binds
3 | SVSEIQLMHNLGKHLNSMERVEWLRKLLQDIHNF (C-terminal amide) [PTH(1-34)NH2 [K27L/V31I]] | binds

Other lines, results leading:

Row | binding | Binder
4 | binds | SVSEIQLMHNLGKHLNSMERVEFLRKLLQDVHNF (C-terminal amide) [PTH(1-34)NH2 [W23F/K27L]]
5 | binds | SVSEIQLMHNLGKHLNSMERVEFLRKKIQDVHNF (C-terminal amide) [PTH(1-34)NH2 [W23F/L28I]]
6 | binds | SVSEIQLMHNLGKHLNSMERVEFLRKKLQDIHNF (C-terminal amide) [PTH(1-34)NH2 [W23′F/V31′I]]

Each binder was assayed against PTH1R in cell membranes, G protein-uncoupled conformation (R0) (UniProt Q03431) (assay: competition binding, PTH1R in cell membranes, R0 state).

Row | binding | Binder
7 | binds | AVSEHQLLHDKGKSIQDLRRRFWLHHKLAEVHTA (C-terminal amide) [PTHrP(1-34)NH2 [F23′W/L27′K/I28′L/I31′V]]
8 | binds | SVSEIQLMHNLGKHLNSMERVEFLRKKLQDIHNF (C-terminal amide) [PTH(1-34)NH2 [W23′F/V31′I]]

What follows are binders tested against PTH1R in cell membranes, G protein-uncoupled conformation (R0) (UniProt Q03431) (assay: competition binding on cell membranes, R0 state of PTH1R (GTPγS in the reaction); SB (%) against ligand concentration; tracer not named in the filing [R0 left panel]).

Row | Binder | binding
9 | SVSEIQLMHNLGKHLNSMERVEWLRKKIQDVHNF (C-terminal amide) [PTH(1-34)NH2 [L28I]] | binds
10 | SVSEIQLMHNLGKHLNSMERVEWLRKLLQDVHNF (C-terminal amide) [PTH(1-34)[K27L]NH2] | binds

The remaining lines, values ahead:

Row | binding | Binder
11 | binds | SVSEIQLMHNLGKHLNSMERVEFLRKKLQDVHNF (C-terminal amide) [PTH(1-34)NH2 [W23F]]
12 | binds | SVSEIQLMHNLGKHLNSMERVEFLRKLIQDIHNF (C-terminal amide) [PTH(1-34)NH2 [W23F/K27L/L28I/V31I]]
13 | binds | SVSEIQLMHNLGKHLNSMERVEWLRKKLQDIHNF (C-terminal amide) [PTH(1-34)NH2 [V31I]]
